This is one part of the list. The data scatter; read single values as rough.
What was measured:
[1] = compound: ClCC(=O)N[C@@H]1CCCc2ccccc12; test: log2 mean competition ratio of IA-DTB cysteine labelling (DMSO/compound) (log2 ratio); higher = stronger cysteine engagement by compound; conditions: treatment time: 4 h, cell line lysate: HEK293T
Experimental: (§1)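 IA-DTB competitive cysteine chemoproteomics in HEK293T RIPA lysate. Lysates were treated with compound 29 or 30 at 50 or 200 µM for 4 h, then IA-DTB (500 µM, 1 h), trypsin-digested, NeutrAvidin-enriched and analysed by diaPASEF. Competition ratio = intensity DMSO / intensity compound (n=4 treated, n=64 DMSO); binding: mean log2 CR ≥ 1 and p ≤ 0.05 plus QC filters. Target is the cysteine site.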

[2] = compound: ClCC(=O)N[C@H]1CCCc2ccccc12; test: as above; conditions: treatment time: 4 h, cell line lysate: HEK293T
Experimental: as §1

Target | log2 mean competition ratio ([1]; 50 µM) | log2 mean competition ratio ([1]; 200 µM) | log2 mean competition ratio ([2]; 50 µM) | log2 mean competition ratio ([2]; 200 µM)
RALBP1 C291 (UniProt Q15311) | -0.0624 | 0.138 | -0.0374 | 0.274
RCC1L C329 (UniProt Q96I51) | 0.306 | 0.032 | 0.323 | -0.127
RARS2 C576 (UniProt Q5T160) | 0.0428 | 0.325 | 0.189 | 0.305
RALGAPA1 C293 (UniProt Q6GYQ0) | -0.2 | 0.053 | -0.0073 | 0.136
RANBP10 C243 (UniProt Q6VN20) | 0.659 | 0.146 | 0.331 | 0.00651
RIPOR1 C289 (UniProt Q6ZS17) | 0.156 | -0.104 | 0.0865 | -0.126
RHOC C16 (UniProt P08134) | -0.00802 | -0.226 | 0.546 | -0.0122
RB1CC1 C839 (UniProt Q8TDY2) | 0.0366 | -0.393 | 0.264 | -0.36
RBM5 C766 (UniProt P52756) | 0.0713 | 0.212 | 0.226 | 0.132
RFC2 C255 (UniProt P35250) | 0.14 | 0.0336 | -0.541 | -0.0617
RGPD8 C349 | 0.261 | 0.252 | -0.286 | 0.849
RBM5 C187 (UniProt P52756) | -0.0555 | -0.0936 | -0.356 | 0.0422
RARS1 C638 | 0.498 | -0.0897 | 0.233 | -0.3
RB1 C853 (UniProt P06400) | 0.00198 | -0.00791 | -0.0843 | 0.089
RBM27 C279 (UniProt Q9P2N5) | 0.192 | -0.0398 | -0.114 | 0.251
RECQL5 C246 (UniProt O94762) | -0.0615 | 0.121 | 0.102 | -0.028

Some of the entries so far, with tabs.
Target	log2 mean competition ratio ([1]; 50 µM)	log2 mean competition ratio ([1]; 200 µM)	log2 mean competition ratio ([2]; 50 µM)	log2 mean competition ratio ([2]; 200 µM)
RARS1 C638	0.498	-0.0897	0.233	-0.3
RB1 C853 (UniProt P06400)	0.00198	-0.00791	-0.0843	0.089
RBM27 C279 (UniProt Q9P2N5)	0.192	-0.0398	-0.114	0.251

Source: the supplement of paper PMC11732987, “Enantioselective OTUD7B fragment discovery through chemoproteomics screening and high-throughput optimisation” (Communications Chemistry, 2025)
